Primary screen of a compound library

The values are deposited in ChEMBL (CHEMBL3988442, “University of Dundee, Small-Polar-MMV Screening Library” (2021)).

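Whole-cell growth test on Mycobacterium tuberculosis, read after 3 days in glucose-containing 7H9 medium; the read-out is not stated. Compounds at 500 µM. Higher reads as more growth inhibition (inferred: compounds with an IC50 in retests scored well above the rest). Size under these conditions: about 18,000 compounds, about 1,400 of them at 50% or above in at least one test.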

The filed quantity is “Percent Effect” (%).
The record does not define 0% and 100%; most values in the screen are far below 50% and negative numbers occur (in some assays of this library far below -100).
Compounds were drawn at random from those tested, without regard to their results.

compound,effect
Cn1cnnc1CCNC(=O)c1cc(F)ccc1F,3.14
CC(Oc1cccc(C#N)c1)C(=O)N1CCSCC1 (centres unmarked),42.07
CN(Cc1nccn1C1CC1)CC1(C)COC1,8.357
CCc1[nH][nH]c(=O)c1CCN,4.038
CCNC(=O)COC(=O)CN(C)c1ncccn1,16.14
CC(NC(=O)C1CCNCC1)c1cccc(F)c1 (centres unmarked),9.462
N#Cc1ccc(CN2CCCC2=O)cc1,34.5
CN(CC(F)(F)F)C(=O)CN1CCCC(CCO)C1 (centres unmarked),9.9
COCC(C)Oc1cc(C)ccc1CN (centres unmarked),64.36
O=C(Cn1cccn1)Nc1ccccc1Br,2.779
Cn1cc(-c2csc(C3CCCO3)n2)cn1 (centres unmarked),47.29
CCOC(=O)CNC(=O)N1CCn2cccc2C1C (centres unmarked),-18.07
COCCNS(=O)(=O)c1ccc2c(c1)CCO2,29.29
CC(CNS(N)(=O)=O)Cc1cccs1 (centres unmarked),45.43
COCCCNC(=O)CN1CCCC1c1ccc(C)o1 (centres unmarked),40.25
O=C(NCc1cn2ccccc2n1)C1CCC1,-0.9979
CS(=O)(=O)N1CCSc2ccc(Cl)cc21,-7.318
N#Cc1ccccc1C(=O)N1CCOC2(CCCC2)C1,31.09
O=C1CC(N2CCN(Cc3ccccc3)CC2)C(=O)N1 (centres unmarked),-8.486
CN1CC2(CCCN(CCn3cc(Cl)cn3)C2)OC1=O (centres unmarked),13.43
CCCNC(=O)N1CCCCC1C1OCCO1 (centres unmarked),14.07
COCCNC(=O)c1ccc(N2CCCC(O)C2)nc1 (centres unmarked),12.7
COCCNC(=O)C1CC(=O)N(c2ccccc2F)C1 (centres unmarked),-1.448
Cc1noc(C)c1CN(C)Cc1cc2n(n1)CCNC2,10.15
CC(C)(C)c1nc(C(C)(C)N)no1,0.2492
Cc1c[nH]c(CN(C)Cc2ccc(N(C)C)nc2)n1,21.72
O=C(CN1CCN(C2CC2)CC1)NCc1ccco1,12.03
CCc1ccc(C(=O)NC(C)c2cccnc2)o1 (centres unmarked),53.68
COC(=O)CN1CCN(Cc2ccccc2)CC1,17.04
CC(=O)c1ccc(NC(=O)CCc2cccs2)nc1,-8.027
CCNC(=O)C(C)NC(=O)NCc1ccccc1OC (centres unmarked),-7.838
NS(=O)(=O)c1cc(Cl)cc(CO)c1,1.49
CNC(COC)Cc1ccccc1 (centres unmarked),5.489
Cc1ccc(CNCc2cscn2)c(N2CCCC2)n1,3.855
CNC(C)c1ccco1 (centres unmarked),17.56
C[S+]([O-])C1(CNC(=O)c2ccnc3ccccc23)CC1 (centres unmarked),9.518
O=C(Nc1ccncc1)C1CCCO1 (centres unmarked),17.04
Cc1oc2ncn(C)c(=O)c2c1C(=O)N(C)C,-0.453
CC1c2ccsc2CCN1C(=O)c1ccncc1 (centres unmarked),13.66
CCOc1cc(C(=O)NCCCOC(C)C)ccn1,78.87
CN(Cc1ccc(S(C)(=O)=O)cc1)CC1COCCO1 (centres unmarked),9.996
NC(=O)CCC1CCNCC1,-3.127
CCC(N)c1ccccc1OCC(=O)N(C)C (centres unmarked),35.02
CCSCc1ccc(C(=O)NCCNC(C)=O)cc1,15.35
CC(=O)NCCCN1CCC(CNc2ccccn2)C1 (centres unmarked),9.7
COCCN1CCN(Cc2cc(C(C)(C)C)[nH]n2)CC1,12.79
OCC1(O)CCCN(Cc2nccs2)CC1 (centres unmarked),2.985
N#CC1=C(N)n2ncnc2NC1c1ccccc1 (centres unmarked),-6.983
O=C1CCCc2nccc(-c3ccncc3)c21,-1.436
CCc1nnc(C2CNCCO2)o1 (centres unmarked),10.54
Oc1cccc(CNc2cccnc2-n2cccn2)c1,83.78
CNC(=O)CN(c1cccc2ccccc12)S(C)(=O)=O,7.111
Cc1nc(C)c(C(=O)N[C@@H]2CCNC[C@H]2O)s1,-2.766
O=C(Nc1ccccc1)N(CCCO)C1CC1,25.04
O=S(=O)(C1CC1)N1CCC(Nc2ccccn2)CC1,7.708
CC(C)N1CCC(C(=O)N(C)Cc2nccn2C)CC1,8.743
CN(C)S(=O)(=O)CCCN1CC(C)(C)[C@@](C)(O)C1,8.883
CC1CCC(NC(=O)c2ccc(S(N)(=O)=O)cc2)CC1 (centres unmarked),-2.101
CCN(CCN1CCCCCC1)C(=O)c1cnc[nH]1,-11.9
NC(=O)C1CCCN(CCc2ccccc2)C1 (centres unmarked),85.82
CC1CCN(S(=O)(=O)N(C)CC(N)=O)CC1,-1.625
N#Cc1cccc(C(=O)OCCCn2cccn2)c1,51.41
NCCc1ccc(N2CCOCC2)c(F)c1,53.31
CCOc1cccc(CNCCO)c1,7.972
NCc1ccnc(N2CCCC2)n1,-19.02
Fc1ccc(NCC2CCC3(CC2)OCCO3)nc1,66.64
OCc1ccc(CSc2nnc(O)[nH]2)cc1,3.68
CNC(=O)c1ccc(-n2cccc2)nc1,-1.461
CN(C)C(=O)CCCOc1nc(C(C)(C)C)no1,32.24
CC1CCN(CCNS(C)(=O)=O)CC1,4.771
CN(C)c1ncc(CN2CCCCC2CO)cn1 (centres unmarked),-6.051
NC1CCOC2(CCC2)C1 (centres unmarked),2.793

The last 6 entries again:

| compound | effect |
|---|---|
| `OCc1ccc(CSc2nnc(O)[nH]2)cc1` | 3.68 |
| `CNC(=O)c1ccc(-n2cccc2)nc1` | -1.461 |
| `CN(C)C(=O)CCCOc1nc(C(C)(C)C)no1` | 32.24 |
| `CC1CCN(CCNS(C)(=O)=O)CC1` | 4.771 |
| `CN(C)c1ncc(CN2CCCCC2CO)cn1` (centres unmarked) | -6.051 |
| `NC1CCOC2(CCC2)C1` (centres unmarked) | 2.793 |